Measured values reported in the supplement of paper PMC5836539.
± gives the standard deviation of the averaged measurements. Single values are uncertain here, since repeats match poorly.

Amino acid sequences for entries named in this document (tags omitted). A change or cut given only in a name is not applied to a line headed by its entry.
UniProt Q641Q2, whole entry, looked up: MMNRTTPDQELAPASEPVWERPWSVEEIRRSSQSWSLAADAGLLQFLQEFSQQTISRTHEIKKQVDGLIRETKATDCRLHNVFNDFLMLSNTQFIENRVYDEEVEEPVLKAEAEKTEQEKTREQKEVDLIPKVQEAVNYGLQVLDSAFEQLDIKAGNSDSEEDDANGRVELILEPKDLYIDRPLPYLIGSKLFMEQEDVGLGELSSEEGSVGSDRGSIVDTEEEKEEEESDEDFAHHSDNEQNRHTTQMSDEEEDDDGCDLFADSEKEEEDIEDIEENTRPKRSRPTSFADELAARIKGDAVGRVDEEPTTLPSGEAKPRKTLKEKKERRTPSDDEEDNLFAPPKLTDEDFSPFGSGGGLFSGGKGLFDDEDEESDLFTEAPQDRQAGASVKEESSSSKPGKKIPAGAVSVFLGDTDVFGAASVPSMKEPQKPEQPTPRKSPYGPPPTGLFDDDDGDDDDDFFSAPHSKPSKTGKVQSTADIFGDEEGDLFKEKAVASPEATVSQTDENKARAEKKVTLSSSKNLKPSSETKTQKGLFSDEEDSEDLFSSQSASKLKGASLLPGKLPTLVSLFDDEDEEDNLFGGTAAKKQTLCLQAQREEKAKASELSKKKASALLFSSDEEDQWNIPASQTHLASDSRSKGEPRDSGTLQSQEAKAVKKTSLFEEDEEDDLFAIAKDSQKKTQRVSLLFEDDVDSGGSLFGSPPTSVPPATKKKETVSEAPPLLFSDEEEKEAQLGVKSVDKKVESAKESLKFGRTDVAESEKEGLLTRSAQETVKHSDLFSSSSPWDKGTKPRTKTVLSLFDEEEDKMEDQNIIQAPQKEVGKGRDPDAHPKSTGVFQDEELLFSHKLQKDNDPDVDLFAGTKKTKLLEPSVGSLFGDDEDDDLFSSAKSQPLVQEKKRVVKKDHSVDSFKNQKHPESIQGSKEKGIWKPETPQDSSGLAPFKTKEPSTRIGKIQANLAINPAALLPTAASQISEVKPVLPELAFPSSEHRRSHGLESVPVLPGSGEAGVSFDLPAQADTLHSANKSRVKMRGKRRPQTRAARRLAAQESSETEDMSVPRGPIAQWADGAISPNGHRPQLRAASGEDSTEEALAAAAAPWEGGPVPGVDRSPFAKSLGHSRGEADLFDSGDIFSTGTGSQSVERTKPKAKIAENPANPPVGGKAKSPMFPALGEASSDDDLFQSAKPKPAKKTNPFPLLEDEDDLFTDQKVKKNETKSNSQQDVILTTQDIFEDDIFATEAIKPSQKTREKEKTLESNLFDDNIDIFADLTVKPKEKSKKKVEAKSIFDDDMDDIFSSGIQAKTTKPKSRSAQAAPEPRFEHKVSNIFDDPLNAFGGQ
UniProt Q765P7: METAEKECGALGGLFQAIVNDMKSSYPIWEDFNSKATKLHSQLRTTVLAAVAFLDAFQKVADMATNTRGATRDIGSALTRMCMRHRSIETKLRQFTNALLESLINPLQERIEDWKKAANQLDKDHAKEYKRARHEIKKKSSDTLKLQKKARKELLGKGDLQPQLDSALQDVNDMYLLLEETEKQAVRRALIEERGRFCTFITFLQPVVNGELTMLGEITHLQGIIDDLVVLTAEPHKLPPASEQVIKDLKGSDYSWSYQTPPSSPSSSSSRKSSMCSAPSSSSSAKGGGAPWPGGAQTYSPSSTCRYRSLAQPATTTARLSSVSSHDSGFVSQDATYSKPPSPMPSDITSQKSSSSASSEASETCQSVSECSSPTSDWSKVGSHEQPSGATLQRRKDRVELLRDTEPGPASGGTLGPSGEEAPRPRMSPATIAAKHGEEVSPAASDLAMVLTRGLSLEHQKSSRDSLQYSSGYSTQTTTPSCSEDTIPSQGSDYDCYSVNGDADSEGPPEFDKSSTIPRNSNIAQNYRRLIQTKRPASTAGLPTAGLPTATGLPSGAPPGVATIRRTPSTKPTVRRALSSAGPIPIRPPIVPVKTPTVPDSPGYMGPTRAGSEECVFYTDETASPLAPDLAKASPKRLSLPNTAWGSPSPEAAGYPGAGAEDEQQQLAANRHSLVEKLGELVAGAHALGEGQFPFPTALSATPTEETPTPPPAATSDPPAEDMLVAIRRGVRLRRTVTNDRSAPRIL
UniProt Q01105, whole entry, looked up: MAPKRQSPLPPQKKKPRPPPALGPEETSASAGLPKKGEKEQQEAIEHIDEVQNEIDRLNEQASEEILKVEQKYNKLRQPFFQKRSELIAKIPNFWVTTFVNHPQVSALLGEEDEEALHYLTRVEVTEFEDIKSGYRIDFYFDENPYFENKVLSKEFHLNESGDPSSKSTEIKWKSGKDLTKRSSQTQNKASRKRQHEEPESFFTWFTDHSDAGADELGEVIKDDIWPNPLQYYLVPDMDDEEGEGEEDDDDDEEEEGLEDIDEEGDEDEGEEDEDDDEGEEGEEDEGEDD
UniProt Q01518, whole entry, looked up: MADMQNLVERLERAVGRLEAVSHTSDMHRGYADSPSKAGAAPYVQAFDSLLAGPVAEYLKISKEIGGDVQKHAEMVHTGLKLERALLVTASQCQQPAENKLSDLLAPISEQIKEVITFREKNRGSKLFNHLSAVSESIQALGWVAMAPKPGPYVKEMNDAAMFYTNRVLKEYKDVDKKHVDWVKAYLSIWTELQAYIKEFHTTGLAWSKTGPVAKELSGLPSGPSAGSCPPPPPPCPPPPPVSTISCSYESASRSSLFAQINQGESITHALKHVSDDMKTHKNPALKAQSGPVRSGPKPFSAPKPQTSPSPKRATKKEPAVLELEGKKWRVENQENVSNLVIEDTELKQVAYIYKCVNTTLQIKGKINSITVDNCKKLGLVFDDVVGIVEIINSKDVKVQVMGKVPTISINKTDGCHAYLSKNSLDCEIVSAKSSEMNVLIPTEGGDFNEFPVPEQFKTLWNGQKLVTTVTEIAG
UniProt Q04637, whole entry, looked up: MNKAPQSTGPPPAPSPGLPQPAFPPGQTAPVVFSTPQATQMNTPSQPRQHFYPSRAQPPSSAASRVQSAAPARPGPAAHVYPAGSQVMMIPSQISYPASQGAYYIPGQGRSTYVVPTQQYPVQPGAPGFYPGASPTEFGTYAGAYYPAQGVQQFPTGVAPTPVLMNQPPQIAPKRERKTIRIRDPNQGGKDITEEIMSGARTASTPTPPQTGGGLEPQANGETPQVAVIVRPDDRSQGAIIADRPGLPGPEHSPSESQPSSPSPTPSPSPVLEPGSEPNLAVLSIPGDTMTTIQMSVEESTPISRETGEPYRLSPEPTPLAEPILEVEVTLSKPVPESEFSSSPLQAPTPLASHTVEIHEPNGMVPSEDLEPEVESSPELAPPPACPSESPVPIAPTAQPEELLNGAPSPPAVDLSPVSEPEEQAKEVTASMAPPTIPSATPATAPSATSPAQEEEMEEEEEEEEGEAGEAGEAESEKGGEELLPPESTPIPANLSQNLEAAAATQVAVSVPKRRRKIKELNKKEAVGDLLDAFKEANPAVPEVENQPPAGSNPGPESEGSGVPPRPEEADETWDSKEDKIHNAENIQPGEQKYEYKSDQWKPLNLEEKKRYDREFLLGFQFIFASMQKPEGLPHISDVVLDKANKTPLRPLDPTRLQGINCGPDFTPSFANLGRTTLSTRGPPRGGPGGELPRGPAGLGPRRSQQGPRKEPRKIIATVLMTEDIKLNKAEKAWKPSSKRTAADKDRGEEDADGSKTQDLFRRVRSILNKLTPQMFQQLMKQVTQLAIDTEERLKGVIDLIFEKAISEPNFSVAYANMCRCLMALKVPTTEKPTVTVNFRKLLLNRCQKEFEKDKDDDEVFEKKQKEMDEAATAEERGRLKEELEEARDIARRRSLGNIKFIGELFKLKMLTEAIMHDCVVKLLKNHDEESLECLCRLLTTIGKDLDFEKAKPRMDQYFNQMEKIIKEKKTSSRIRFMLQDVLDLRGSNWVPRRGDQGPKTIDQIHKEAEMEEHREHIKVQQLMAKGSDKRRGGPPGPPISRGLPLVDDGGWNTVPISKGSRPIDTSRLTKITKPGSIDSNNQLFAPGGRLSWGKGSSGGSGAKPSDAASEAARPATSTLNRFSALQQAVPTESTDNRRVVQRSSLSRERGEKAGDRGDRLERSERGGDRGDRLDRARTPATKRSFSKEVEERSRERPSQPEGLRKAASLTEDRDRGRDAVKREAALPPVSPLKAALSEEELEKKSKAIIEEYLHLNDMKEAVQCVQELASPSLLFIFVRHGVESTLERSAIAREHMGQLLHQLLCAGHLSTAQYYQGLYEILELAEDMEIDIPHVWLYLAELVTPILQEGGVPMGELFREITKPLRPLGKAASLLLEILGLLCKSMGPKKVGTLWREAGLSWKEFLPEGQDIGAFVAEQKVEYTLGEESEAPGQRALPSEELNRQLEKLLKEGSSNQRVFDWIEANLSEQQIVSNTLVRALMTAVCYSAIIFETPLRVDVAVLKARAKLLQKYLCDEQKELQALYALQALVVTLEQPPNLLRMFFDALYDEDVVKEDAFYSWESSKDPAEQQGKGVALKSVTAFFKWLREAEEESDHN
UniProt Q07666, whole entry, looked up: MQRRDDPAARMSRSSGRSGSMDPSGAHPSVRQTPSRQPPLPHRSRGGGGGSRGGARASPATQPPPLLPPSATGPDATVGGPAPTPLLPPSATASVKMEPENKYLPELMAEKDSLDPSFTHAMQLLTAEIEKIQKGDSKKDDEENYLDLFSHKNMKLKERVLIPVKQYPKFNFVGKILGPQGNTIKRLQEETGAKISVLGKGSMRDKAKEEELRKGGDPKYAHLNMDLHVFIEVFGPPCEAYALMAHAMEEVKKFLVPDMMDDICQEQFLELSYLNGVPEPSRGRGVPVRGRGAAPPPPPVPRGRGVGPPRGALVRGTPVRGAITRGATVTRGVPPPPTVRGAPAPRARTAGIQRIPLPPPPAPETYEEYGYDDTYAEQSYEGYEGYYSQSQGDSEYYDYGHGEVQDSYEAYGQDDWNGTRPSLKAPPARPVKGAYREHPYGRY
UniProt Q15366, whole entry, looked up: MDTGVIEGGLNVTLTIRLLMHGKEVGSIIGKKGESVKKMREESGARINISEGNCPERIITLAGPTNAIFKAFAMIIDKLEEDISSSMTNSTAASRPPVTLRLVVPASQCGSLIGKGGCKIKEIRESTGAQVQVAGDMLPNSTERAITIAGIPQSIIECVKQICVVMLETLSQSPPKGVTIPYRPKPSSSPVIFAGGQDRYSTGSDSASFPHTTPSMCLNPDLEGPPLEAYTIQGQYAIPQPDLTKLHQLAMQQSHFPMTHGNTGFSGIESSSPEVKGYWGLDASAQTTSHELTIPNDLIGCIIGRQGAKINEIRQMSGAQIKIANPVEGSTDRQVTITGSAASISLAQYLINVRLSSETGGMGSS
UniProt Q15418, whole entry, looked up: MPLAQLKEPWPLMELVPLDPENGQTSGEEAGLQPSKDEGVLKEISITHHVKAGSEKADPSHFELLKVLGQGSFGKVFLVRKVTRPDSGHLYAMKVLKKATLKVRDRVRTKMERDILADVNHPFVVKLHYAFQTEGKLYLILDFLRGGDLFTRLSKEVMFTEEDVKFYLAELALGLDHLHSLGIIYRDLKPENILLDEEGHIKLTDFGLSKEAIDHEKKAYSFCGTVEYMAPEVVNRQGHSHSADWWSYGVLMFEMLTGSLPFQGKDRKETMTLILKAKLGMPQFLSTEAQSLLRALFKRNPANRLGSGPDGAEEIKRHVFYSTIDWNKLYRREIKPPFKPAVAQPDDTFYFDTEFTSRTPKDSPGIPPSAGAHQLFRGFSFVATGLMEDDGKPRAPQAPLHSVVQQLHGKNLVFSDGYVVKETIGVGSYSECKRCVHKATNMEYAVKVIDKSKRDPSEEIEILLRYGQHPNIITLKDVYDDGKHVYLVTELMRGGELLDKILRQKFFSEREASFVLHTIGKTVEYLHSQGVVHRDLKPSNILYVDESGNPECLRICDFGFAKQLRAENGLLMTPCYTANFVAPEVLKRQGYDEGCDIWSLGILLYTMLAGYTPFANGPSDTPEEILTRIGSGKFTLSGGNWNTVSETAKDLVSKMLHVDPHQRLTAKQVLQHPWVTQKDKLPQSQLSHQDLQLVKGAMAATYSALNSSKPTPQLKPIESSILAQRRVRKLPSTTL
UniProt Q16637, whole entry, looked up: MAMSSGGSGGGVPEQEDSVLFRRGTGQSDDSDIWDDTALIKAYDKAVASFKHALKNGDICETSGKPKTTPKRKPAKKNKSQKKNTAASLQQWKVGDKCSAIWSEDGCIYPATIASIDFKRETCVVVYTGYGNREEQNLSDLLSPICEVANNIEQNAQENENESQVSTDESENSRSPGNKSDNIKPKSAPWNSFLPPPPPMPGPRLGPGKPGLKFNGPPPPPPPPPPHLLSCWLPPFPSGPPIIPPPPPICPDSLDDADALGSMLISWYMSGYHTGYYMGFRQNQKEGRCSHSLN

Columns and labels:
XL888 [1] = compound: T1, CC[C@@H](C)Nc1cc(C(=O)N[C@H]2C[C@H]3CC[C@@H](C2)N3c2ccc(C(=O)C3CC3)cn2)c(C)cc1C(N)=O [XL888]; assay: phosphopeptide melting temperature shift (XL888 minus DMSO); higher = stabilised by drug treatment; settings: 100 µM; treatment time 2 h; layout: intact cells; SK-Mel 28
Method: (§1)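 Phospho-TPP in intact SK-Mel 28 cells treated with 100 uM XL888 or DMSO for 2 h, heated at 10 temperatures (37-67 C) for 3 min, soluble fraction TMT10plex-labelled and TiO2 phospho-enriched. Melting curves were fitted per phosphopeptide; the value is the melting point difference (drug minus vehicle) in each of two biological replicates.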

XL888 [2] = compound: T1, XL888; assay: as above; settings: 100 µM; treatment time 2 h; layout: intact cells; SK-Mel 24
Method: as §1, with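 “24” for “28”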

Row | Target | phosphopeptide melting temperature shift (XL888 [1]) [°C] | phosphopeptide melting temperature shift (XL888 [2]) [°C]
1 | UniProt Q9Y6D9-3_phosphosite_336 (phosphosite position: 336) | 0.145 ± 0.82 | 1.32
2 | UniProt Q9Y6M1-1_phosphosite_164 (phosphosite position: 164) | 1.24 ± 1.5 | -0.272
3 | UniProt Q14C86-3_phosphosite_966 (phosphosite position: 966) | 0.932 ± 0.22 | 0.741
4 | UniProt Q53GS9-3_phosphosite_46 (phosphosite position: 46) | -1.28 | -0.0975 ± 0.94
5 | UniProt Q53GS9-3_phosphosite_82 (phosphosite position: 82) | 1.6 ± 0.47 | 1.2
6 | UniProt Q63HN8_phosphosite_1258 (phosphosite position: 1258) | 2.06 ± 1.5 | 0.531
7 | UniProt Q66K74-2_phosphosite_631 (phosphosite position: 631) | 0.218 ± 1.1 | -0.601
8 | UniProt Q66K74-2_phosphosite_703 (phosphosite position: 703) | -0.466 ± 0.97 | -0.517
9 | UniProt Q68DA7_phosphosite_235 (phosphosite position: 235) | 0.749 ± 0.17 | 0.204
10 | UniProt Q69YN4-3_phosphosite_1579 (phosphosite position: 1579) | 0.741 | -0.475
11 | UniProt Q86W92-2_phosphosite_573 (phosphosite position: 573) | 1.31 ± 0.38 | 0.34
12 | UniProt Q86W92-2_phosphosite_788 (phosphosite position: 788) | 1.49 ± 0.48 | 3.88
13 | UniProt Q96BR1-2_phosphosite_129 (phosphosite position: 129) | 0.733 ± 0.45 | -0.535
14 | UniProt Q96JG6_phosphosite_559 (phosphosite position: 559) | 0.259 ± 0.9 | 0.0263
15 | UniProt Q96K21-2_phosphosite_344 (phosphosite position: 344) | 2 | -0.368
16 | UniProt Q96N67-2_phosphosite_1383 (phosphosite position: 1383) | 0.534 ± 0.09 | 0.447
17 | UniProt Q96P48-3_phosphosite_229 (phosphosite position: 229) | -1.14 | 2.07
18 | UniProt Q96Q05-3_phosphosite_944 (phosphosite position: 944) | 0.262 ± 0.36 | 0.918
19 | UniProt Q96S55-2_phosphosite_75 (phosphosite position: 75) | 0.491 ± 1.2 | -1.22
20 | UniProt Q641Q2-2_phosphosite_331 (phosphosite position: 331) | 0.943 ± 0.88 | 0.476
21 | UniProt Q641Q2-2_phosphosite_333 (phosphosite position: 333) | 1.11 ± 0.77 | 0.274
22 | UniProt Q765P7_phosphosite_612 (phosphosite position: 612) | 2.88 | 0.515
23 | UniProt Q01105-2_phosphosite_24 (phosphosite position: 24) | -0.175 ± 0.29 | -0.517
24 | UniProt Q01518-2_phosphosite_307 (phosphosite position: 307) | 1.66 ± 1.6 | 1.22
25 | UniProt Q01831-2_phosphosite_94 (phosphosite position: 94) | 0.926 | -2.34
26 | UniProt Q02078-3_phosphosite_98 (phosphosite position: 98) | 1.19 ± 0.67 | 0.28
27 | UniProt Q02952-3_phosphosite_143 (phosphosite position: 143) | 1.64 ± 0.4 | 0.804
28 | UniProt Q03001-8_phosphosite_1556 (phosphosite position: 1556) | 0.336 | -1.22

4 neighbouring entries from above, for reference:
Row | Target | phosphopeptide melting temperature shift (XL888 [1]) [°C] | phosphopeptide melting temperature shift (XL888 [2]) [°C]
20 | UniProt Q641Q2-2_phosphosite_331 (phosphosite position: 331) | 0.943 ± 0.88 | 0.476
21 | UniProt Q641Q2-2_phosphosite_333 (phosphosite position: 333) | 1.11 ± 0.77 | 0.274
22 | UniProt Q765P7_phosphosite_612 (phosphosite position: 612) | 2.88 | 0.515
23 | UniProt Q01105-2_phosphosite_24 (phosphosite position: 24) | -0.175 ± 0.29 | -0.517

Additional results:

Row | Target | phosphopeptide melting temperature shift (XL888 [1]) [°C] | phosphopeptide melting temperature shift (XL888 [2]) [°C]
29 | UniProt Q04637-6_phosphosite_1035 (phosphosite position: 1035) | 0.384 ± 0.32 | 1.283 ± 0.0026
30 | UniProt Q05209-2_phosphosite_305 (phosphosite position: 305) | 0.837 ± 0.49 | 0.161
31 | UniProt Q05519-2_phosphosite_448 (phosphosite position: 448) | 3.08 ± 1.6 | 0.491 ± 0.77
32 | UniProt Q07666-2_phosphosite_20 (phosphosite position: 20) | 4.23 ± 0.16 | 1.13
33 | UniProt Q07866-6_phosphosite_591 (phosphosite position: 591) | -0.162 ± 0.67 | -0.543 ± 0.3
34 | UniProt Q07866-6_phosphosite_622 (phosphosite position: 622) | -1.31 | 0.108
35 | UniProt Q12802-4_phosphosite_1584 (phosphosite position: 1584) | 0.514 ± 0.14 | -1.42
36 | UniProt Q13045-2_phosphosite_381 (phosphosite position: 381) | 0.367 ± 0.5 | -0.57
37 | UniProt Q13428-6_phosphosite_1312 (phosphosite position: 1312) | -1.1 | -1.32 ± 0.1
38 | UniProt Q13428-6_phosphosite_1340 (phosphosite position: 1340) | -0.328 | -0.904
39 | UniProt Q13459-2_phosphosite_1992 (phosphosite position: 1992) | -1.74 | 0.195
40 | UniProt Q14155-1_phosphosite_340 (phosphosite position: 340) | 0.241 | -1.46
41 | UniProt Q14155-1_phosphosite_516 (phosphosite position: 516) | -0.14 ± 0.39 | -0.518
42 | UniProt Q14498-2_phosphosite_136 (phosphosite position: 136) | 1.32 ± 0.34 | 0.456 ± 0.61
43 | UniProt Q14676-3_phosphosite_168 (phosphosite position: 168) | 0.44 ± 0.14 | -0.442
44 | UniProt Q14677-2_phosphosite_281 (phosphosite position: 281) | 1.08 ± 0.12 | 2.02
45 | UniProt Q14814-6_phosphosite_391 (phosphosite position: 391) | 0.872 | 1.22
46 | UniProt Q15019_phosphosite_218 (phosphosite position: 218) | 0.663 ± 0.61 | 0.506 ± 0.28
47 | UniProt Q15036-2_phosphosite_384 (phosphosite position: 384) | -0.175 ± 0.51 | -0.535
48 | UniProt Q15084-3_phosphosite_425 (phosphosite position: 425) | 0.342 ± 0.29 | -1.14
49 | UniProt Q15149-4_phosphosite_21 (phosphosite position: 21) | -0.947 | -0.826
50 | UniProt Q15149_phosphosite_4386 (phosphosite position: 4386) | -0.179 ± 0.73 | 0.165
51 | UniProt Q15366-2_phosphosite_189 (phosphosite position: 189) | 3.04 | 1.84
52 | UniProt Q15418-3_phosphosite_271 (phosphosite position: 271) | 0.765 ± 0.64 | 0.291
53 | UniProt Q15831-2_phosphosite_31 (phosphosite position: 31) | -0.588 | -1.23
54 | UniProt Q16637-4_phosphosite_28 (phosphosite position: 28) | 1.57 ± 1.6 | 0.086
55 | UniProt Q92466-3_phosphosite_26 (phosphosite position: 26) | -1.38 | -0.156 ± 0.36
